# According to patent US20210214459A1:
# The chains behind the UniProt entries cited, without tags or fusion partners. Residues count along the entry.
# UniProt P21589, residues 27-549: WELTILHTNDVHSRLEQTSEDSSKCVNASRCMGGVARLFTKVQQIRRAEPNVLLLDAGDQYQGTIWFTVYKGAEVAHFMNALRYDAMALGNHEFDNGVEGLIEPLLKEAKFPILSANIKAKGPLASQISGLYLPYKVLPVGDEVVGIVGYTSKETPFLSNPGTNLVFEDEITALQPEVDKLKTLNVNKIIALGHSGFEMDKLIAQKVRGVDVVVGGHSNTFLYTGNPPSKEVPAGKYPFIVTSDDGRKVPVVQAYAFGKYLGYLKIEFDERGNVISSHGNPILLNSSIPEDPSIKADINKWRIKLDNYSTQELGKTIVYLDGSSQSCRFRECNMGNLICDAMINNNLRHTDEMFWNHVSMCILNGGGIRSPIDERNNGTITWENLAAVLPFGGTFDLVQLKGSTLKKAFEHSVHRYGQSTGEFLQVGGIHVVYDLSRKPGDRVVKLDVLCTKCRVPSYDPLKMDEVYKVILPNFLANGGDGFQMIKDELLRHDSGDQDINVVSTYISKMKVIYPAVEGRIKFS
# Where a chain is given by its changes, count along the chain named. Results are given in words; binding and its absence hold for the method and conditions named. Some entries that bind do so weakly or less than the wild type. For part of these data: Sequences can lack the tags named with a protein.
# T1: Recombinant Mouse 5'-Nucleotidase/CD73 Protein, CF (R&D Systems Cat: 4488-EN), Mouse CD73-His (mouse) (UniProt Q61503)
# T1 sequence (looked up): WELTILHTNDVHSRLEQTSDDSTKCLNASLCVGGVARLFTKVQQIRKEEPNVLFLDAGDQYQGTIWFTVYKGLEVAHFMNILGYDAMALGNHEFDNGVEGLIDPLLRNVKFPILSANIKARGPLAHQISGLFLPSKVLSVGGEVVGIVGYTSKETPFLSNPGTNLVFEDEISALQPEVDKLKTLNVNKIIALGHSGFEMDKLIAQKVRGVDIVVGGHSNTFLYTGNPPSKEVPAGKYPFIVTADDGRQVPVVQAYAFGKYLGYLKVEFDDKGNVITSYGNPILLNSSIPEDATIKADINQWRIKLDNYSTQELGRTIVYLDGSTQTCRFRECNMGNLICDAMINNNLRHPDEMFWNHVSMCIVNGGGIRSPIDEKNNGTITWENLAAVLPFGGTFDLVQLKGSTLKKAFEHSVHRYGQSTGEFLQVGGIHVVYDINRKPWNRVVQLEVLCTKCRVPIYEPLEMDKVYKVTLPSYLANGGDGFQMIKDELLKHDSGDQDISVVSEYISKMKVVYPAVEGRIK
# B1: 350.C (antibody, V domains shown)
# VH: QVQLQESGPGLVKPSETLSLTCTVSGGSIERYYWSWIRQPPGKGLEWIGYIYGRGSTNYNPSLKSRVTISVDTSKNQFSLKLSSVTAADTAVYYCARESQESPYNNWFDPWGQGTLVTVSS
# VL: DIQMTQSPSSVSASVGDRVTITCRASQGISSWLAWYQQKPGKAPKLLIYAASSLQSGVPSRFSGSGSGTDFTLTISSLQPEDFATYYCQQGNSFPRTFGGGTKVEIK
# B2: 358.C (antibody, V domains shown)
# VH: B1 VH with E30S, R31G, Y32R, R54T
# VL: B1 VL
# B3: 918.C (antibody, V domains shown)
# VH: B1 VH with E30S, R31S, G53S, R54S
# VL: B1 VL
# B4: 356.C (antibody, V domains shown)
# VH: B1 VH with R31G, Y32R, R54S, N58K
# VL: B1 VL
# B5: 377.B (antibody, IgG4, V domains shown)
# VH: EVQLLESGGGLVQPGGSLRLSCAASGFTFKSYAMSWVRQAPGKGLEWVSAISGSGSYTYYADSVKGRFTISRDNSKNTLYLQMNSLRAEDTAVYYCARGGLYGSGSYLSDFDLWGRGTLVTVSS
# VL: EIVLTQSPATLSVSPGERATLSCRASQSVGSNLAWYQQKPGQAPRLLIYGASTRATGIPARFSGSGSGTEFTLTISSLQSEDFAVYYCQQHNAFPYTFGGGTKVEIK
# B6: 379.B (antibody, human IgG4 S228P, kappa, V domains shown)
# VH: B5 VH with K30S, S31R, A50S, S54T, S56G, Y57S
# VL: EIVLTQSPATLSVSPGERATLSCRASQSVGSNLAWYQQKPGQAPRLLIYGASTRATGIPARFSGSGSGTEFTLTISSLQSEDFAVYYCQQHNAFPYTFGGGTKVEIKR
# B7: 374.B (antibody, human IgG4 S228P, kappa, V domains shown)
# VH: B5 VH with K30S, S31Y, Y32N, A50S, S54T, S56G, Y57S
# VL: B6 VL
# B8: 356.B (antibody, human IgG4 S228P, kappa, V domains shown)
# VH: B1 VH with R31G, Y32R, R54S, N58K
# VL: DIQMTQSPSSVSASVGDRVTITCRASQGISSWLAWYQQKPGKAPKLLIYAASSLQSGVPSRFSGSGSGTDFTLTISSLQPEDFATYYCQQGNSFPRTFGGGTKVEIKR
# B9: 358.B (antibody, human IgG4 S228P, kappa, V domains shown)
# VH: B1 VH with E30S, R31G, Y32R, R54T
# VL: B8 VL
# Target: T1, Recombinant Mouse 5'-Nucleotidase/CD73 Protein, CF (R&D Systems Cat: 4488-EN), Mouse CD73-His (mouse)
# Assay: ForteBio Octet
row,binding,Binder
1,binds,B1
2,binds,B2
3,binds,B3
4,binds,B4

# Target: T1, Recombinant Mouse 5'-Nucleotidase/CD73 Protein, CF (R&D Systems Cat: 4488-EN), Mouse CD73-His (mouse)
# Assay: restated from the Octet results
row,binding,Binder
1,binds,B1
2,binds,B2
3,binds,B3
4,binds,B4

# Target: human CD73 expressed on the cell surface (human) (UniProt P21589)
# Assay: flow cytometry, biotinylated antibody on human whole blood, CD8+ T cells
row,binding,Binder
1,binds,B5
2,binds,B6
3,binds,B7
4,binds,B8
5,binds,B9

# Target: human CD73 expressed on the cell surface (human) (UniProt P21589)
# Assay: flow cytometry, biotinylated antibody on CD8+ T cells in human whole blood, streptavidin-APC detection
row,binding,Binder
1,binds,B5
2,binds,B6
3,binds,B7
4,binds,B8
5,binds,B9
